# Test results: PubChem BioAssay AID1347423 (Functional Genomics Laboratory (NCATS/FGL), 2020)
# The campaign covered roughly 52,000 sequences. About 210 (0.4%) were called active.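 How the source made its calls: active means gene whose silencing raises cell survival under the drug, median off-target-corrected z-score across its silencing RNAs 2 or more; inactive means the rest.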 Some of the results follow.
# Assay: Resistance to Poly (ADP-Ribose) Polymerase inhibitor: Gene Identification via Genome-wide siRNA Screen
# Details: mouse BRCA2 R2336H ES cells, olaparib, CellTiter-Glo viability; stronger effect = higher value
# How it was run: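 Genome-wide siRNA screen (3 siRNAs/gene, 20 nM) in mouse ES cells carrying hypomorphic BRCA2 R2336H; olaparib 500 nM added 48 h post-transfection, CellTiter-Glo viability 72 h later. Normalized to plate-median negative control; MAD z-scores, gene median, seed-adjusted.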
row,Sequence,z-score
1,GCACAUACUACCUAGAAGGTT against Hoxb6,inactive: -0.394
2,GGAAGAAAACGCAACUAUATT against Atp1b3,inactive: 1.31
3,CCUACUGUACCAGUAAAGUTT against 2810422M04Rik,inactive: -0.744
4,GGAUCAGUUGCUCCUAAACTT against Krtap6-2,inactive: 0.391
5,GGUAGUGUCUAACUUCUGGTT against Zfp496,inactive: 0.703
6,CGCGAACUUACCAAAAUGUTT against Endog,inactive: -0.4
7,GCUGUCAGAAAUCUUCGACTT against E2f4,inactive: 0.402
8,CGUGGGACCUGGUAUGUAATT against Slc22a12,inactive: -0.94
9,GCUGAUGGUCAGAGGAAGATT against V1rd12,inactive: 1.34
10,GGGUCACGUGCUGUCUCAUTT against Gm963,inactive: 1.73
11,GGAUAUACAAGUUACAGAATT against Icam1,inactive: 0.365
12,GCAUCUUAACAAUAACUACTT against Fhl4,inactive: -0.334
13,GGCAAAUGGUCUUUAUGCATT against Zfp606,inactive: -0.699
14,GCGAAUGAUAUGUAUCAGATT against Pik3r1,inactive: -0.222
15,CGAGUUUUAUGAAUAAGCUTT against 2600013N14Rik,inactive: 0.707
16,CCAAAAAAGUUAGUUGUGGTT against Phf6,inactive: 0.464
17,GGAAUGAAAAACCUACAUGTT against Cxcl13,inactive: 0.672
18,GGAGCAGAUGGUUCAUGUCTT against Olfr547,inactive: 2.48
19,GGAAUGUGGACAGUGGACATT against 4632423N09Rik,inactive: -2.06
20,GCCGAGAGGGAUGUGUAUATT against Psmb1,inactive: -2.29
21,GCAACCCUUUAAUGAAAAATT against AI591476,inactive: -0.704
22,GGGUGUGACGAUUCUCACCTT against Olfr800,inactive: 1.1

row,Sequence,z-score
1,GGUGAUGCCUUAUUUUGAATT against 2310035K24Rik,inactive: -0.548
2,GCAUAAUUCUAAAGACGGGTT against Zfp143,inactive: -0.383
3,CGAAAACGUGAAAUAUCUCTT against Gpd1l,inactive: -0.379
4,GGAAUUGGUUCAUUUGGUUTT against 1300004G08Rik,inactive: 1.3
5,GAUGGACCAGUACAGAAUUTT against 4632417K02,inactive: 0.843
6,GGUGCUCUGCAUAUUCUGGTT against Olfr654,inactive: 1.37
7,GCUAAAGCAGCCAAGUAUGTT against Eln,inactive: 1.01
8,GGUGUCAAUAACAUAUCAGTT against Nav1,inactive: -0.0933
9,GGCUGGUUUAUUCUGGUAUTT against Als2cr2,inactive: -0.945
10,GGUUAAAUACAAGUCACAATT against AW210596,inactive: -0.679
11,GCACCUCCACCAAAAAAACTT against Cd52,inactive: 0.0509
12,CGAGAUGGAAUAUCGCACATT against Cyyr1,inactive: 1.25
13,GGGUCAGAUUGCUAUCCUCTT against AW556797,inactive: 1.05
14,GCAAGAACUGAAUCUAGUGTT against 2410002I01Rik,inactive: 0.0476
15,GCUAGGCACAAGGUUUUUUTT against Rem1,inactive: -0.354
16,GGGCCUUUGGAUGUUGCUATT against Abcc10,inactive: 1.24
17,GGGACAAGUGAUAAAUUUGTT against BC033609,inactive: 0.279
18,GGAGAUGUUAAUUGAAGUCTT against Ap3b1,inactive: 1.12
19,GCUGUCACACCUAGUGUCATT against Olfr1457,inactive: -0.0756
20,GGUCCUUCAGUGUAAAUCUTT against Cbr2,inactive: 0.0774
21,GGAAAGCAAGUUCACAGUGTT against Olfr352,inactive: -0.528
22,GGGCUUUUUUCUUAAUGCCTT against Pramel3,inactive: 0.51

row,Sequence,z-score
1,GGCAGUAGUUCAGUUGAUATT against A230106N23,inactive: -0.409
2,GGCAGAUGGUAUCAGCUGUTT against Cd164l1,inactive: 1.13
3,GGAACAUUUACAACAUCCATT against Itgb2,inactive: 1.91
4,GGAUUUAACCUCUCCAACUTT against Olfr1030,inactive: 0.318
5,CCGAGCAGUAUGUGAACGUTT against Ela1,inactive: -1.29
6,GCUACUGUGUCGGUCACAUTT against Olfr514,inactive: -1.5
7,GCUGUCAUCCCACUCAAACTT against 0710005M24Rik,inactive: 0.32
8,GCUGGAGGUAUUCAACAUGTT against Gorasp1,inactive: -0.566
9,GCUUUGCUAAGCCUAAAAGTT against BC038156,inactive: 0.773
10,GGAUCUCCAAGUUAAAGAATT against Pigo,inactive: 0.695
11,CCUCCCUAAUGGUCCAUUATT against Cyp2j13,inactive: -1.11
12,GGAAAGACUUGCAUUUUCUTT against 1700010I14Rik,inactive: 0.141
13,GGGCAUUUUGAGAAUAUGATT against 4930441O14Rik,inactive: 0.927
14,GCAUGGAGUCUGGUAUCUGTT against Olfr504,inactive: 0.231
15,GGAGCCAAGAGUGAAGAACTT against Tbp,inactive: -2.93
16,CCAAAGUGGUUUUCAUCCUTT against Hps3,inactive: -1
17,GGAAGGUGGCAAGGUAUCUTT against D030060O14Rik,inactive: -2.74
18,GGCUGUGCUCCUUGUUAGUTT against Olfr1143,inactive: -0.685
19,GGAAGGGUCACUACAGGCATT against Rnf31,inactive: -0.393
20,GGCCAGCUACAAACUGCCUTT against 1810015A11Rik,inactive: -0.22
21,GGGCAGAACUGCAUGAGAATT against Acp1,inactive: 0.568
22,CCCUAAGACGAAGGAAAUGTT against 1110004D19Rik,inactive: -2.09

# Not a retest: an excerpt of the list.
row,Sequence,z-score
4,GGAUUUAACCUCUCCAACUTT against Olfr1030,inactive: 0.318
5,CCGAGCAGUAUGUGAACGUTT against Ela1,inactive: -1.29
6,GCUACUGUGUCGGUCACAUTT against Olfr514,inactive: -1.5
7,GCUGUCAUCCCACUCAAACTT against 0710005M24Rik,inactive: 0.32
8,GCUGGAGGUAUUCAACAUGTT against Gorasp1,inactive: -0.566
9,GCUUUGCUAAGCCUAAAAGTT against BC038156,inactive: 0.773
10,GGAUCUCCAAGUUAAAGAATT against Pigo,inactive: 0.695
11,CCUCCCUAAUGGUCCAUUATT against Cyp2j13,inactive: -1.11
12,GGAAAGACUUGCAUUUUCUTT against 1700010I14Rik,inactive: 0.141
13,GGGCAUUUUGAGAAUAUGATT against 4930441O14Rik,inactive: 0.927
14,GCAUGGAGUCUGGUAUCUGTT against Olfr504,inactive: 0.231
15,GGAGCCAAGAGUGAAGAACTT against Tbp,inactive: -2.93
16,CCAAAGUGGUUUUCAUCCUTT against Hps3,inactive: -1
17,GGAAGGUGGCAAGGUAUCUTT against D030060O14Rik,inactive: -2.74
18,GGCUGUGCUCCUUGUUAGUTT against Olfr1143,inactive: -0.685
19,GGAAGGGUCACUACAGGCATT against Rnf31,inactive: -0.393
20,GGCCAGCUACAAACUGCCUTT against 1810015A11Rik,inactive: -0.22
21,GGGCAGAACUGCAUGAGAATT against Acp1,inactive: 0.568
